# Measured values published in the supplement of paper PMC8728848.
# This is one part of the list.
# What was measured:
# Assay in all cases: glycan array binding signal (z-score within array); higher = stronger binding
# Details in all cases: glycan notation: IUPAC condensed, linker removed
# [1] = target: GlcNAc(b1-3)Gal(b1-4)GlcNAc(b1-3)Gal(b1-4)GlcNAc(b1-3)Gal(b1-4)GlcNAc(b1-2)Man(a1-3)[GlcNAc(b1-3)Gal(b1-4)GlcNAc(b1-3)Gal(b1-4)GlcNAc(b1-3)Gal(b1-4)GlcNAc(b1-2)Man(a1-6)]Man(b1-4)GlcNAc(b1-4)GlcNAc
# Summary of the method: (§1)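 From the Consortium for Functional Glycomics database, 3228 arrays were curated, keeping only those whose protein sequence was available. Binding is given as a within-array Z-score averaged across arrays sharing a protein sequence and across linkers. Negative Z-scores can be read as non-binding.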
# [2] = target: GlcNAc(b1-3)Gal(b1-4)GlcNAc(b1-3)Gal(b1-4)GlcNAc(b1-3)Gal(b1-4)GlcNAc(b1-2)Man(a1-3)[GlcNAc(b1-3)Gal(b1-4)GlcNAc(b1-3)Gal(b1-4)GlcNAc(b1-3)Gal(b1-4)GlcNAc(b1-2)Man(a1-6)]Man(b1-4)GlcNAc(b1-4)[Fuc(a1-6)]GlcNAc
# Summary of the method: as §1
# [3] = target: GlcNAc(b1-3)Gal(b1-4)GlcNAc(b1-3)Gal(b1-4)GlcNAc(b1-3)Gal(b1-4)GlcNAc(b1-2)[GlcNAc(b1-3)Gal(b1-4)GlcNAc(b1-3)Gal(b1-4)GlcNAc(b1-3)Gal(b1-4)GlcNAc(b1-6)]Man(a1-6)[GlcNAc(b1-3)Gal(b1-4)GlcNAc(b1-3)Gal(b1-4)GlcNAc(b1-3)Gal(b1-4)GlcNAc(b1-2)Man(a1-3)]Man(b1-4)GlcNAc(b1-4)[Fuc(a1-6)]GlcNAc
# Summary of the method: as §1
# [4] = target: GlcNAc(b1-3)Gal(b1-4)GlcNAc(b1-3)Gal(b1-4)GlcNAc(b1-3)Gal(b1-4)GlcNAc(b1-3)Gal(b1-4)GlcNAc(b1-2)Man(a1-3)[GlcNAc(b1-3)Gal(b1-4)GlcNAc(b1-3)Gal(b1-4)GlcNAc(b1-3)Gal(b1-4)GlcNAc(b1-3)Gal(b1-4)GlcNAc(b1-2)Man(a1-6)]Man(b1-4)GlcNAc(b1-4)GlcNAc
# Summary of the method: as §1
# [5] = target: GlcNAc(b1-3)Gal(b1-4)GlcNAc(b1-3)Gal(b1-4)GlcNAc(b1-3)Gal(b1-4)GlcNAc(b1-3)Gal(b1-4)GlcNAc(b1-2)Man(a1-3)[GlcNAc(b1-3)Gal(b1-4)GlcNAc(b1-3)Gal(b1-4)GlcNAc(b1-3)Gal(b1-4)GlcNAc(b1-3)Gal(b1-4)GlcNAc(b1-2)Man(a1-6)]Man(b1-4)GlcNAc(b1-4)[Fuc(a1-6)]GlcNAc
# Summary of the method: as §1
# [6] = target: GlcNAc(b1-3)Gal(b1-4)GlcNAc(b1-3)Gal(b1-4)GlcNAc(b1-3)Gal(b1-4)GlcNAc(b1-3)Gal(b1-4)GlcNAc(b1-2)[GlcNAc(b1-3)Gal(b1-4)GlcNAc(b1-3)Gal(b1-4)GlcNAc(b1-3)Gal(b1-4)GlcNAc(b1-3)Gal(b1-4)GlcNAc(b1-6)]Man(a1-6)[GlcNAc(b1-3)Gal(b1-4)GlcNAc(b1-3)Gal(b1-4)GlcNAc(b1-3)Gal(b1-4)GlcNAc(b1-3)Gal(b1-4)GlcNAc(b1-2)Man(a1-3)]Man(b1-4)GlcNAc(b1-4)[Fuc(a1-6)]GlcNAc
# Summary of the method: as §1
# [7] = target: GlcNAc(b1-3)Gal(b1-4)GlcNAc(b1-3)Gal(b1-4)GlcNAc(b1-3)GalNAc
# Summary of the method: as §1
# [8] = target: GlcNAc(b1-3)Gal(b1-4)GlcNAc(b1-3)GalNAc
# Summary of the method: as §1
# [9] = target: GlcNAc(b1-3)Gal(b1-4)GlcNAc(b1-3)[GlcNAc(b1-3)Gal(b1-4)GlcNAc(b1-3)]GalNAc
# Summary of the method: as §1
# [10] = target: GlcNAc(b1-3)Gal(b1-4)GlcNAc(b1-6)[Gal(b1-3)]GalNAc
# Summary of the method: as §1
# [11] = target: GlcNAc(b1-3)Gal(b1-4)GlcNAc(b1-6)[GlcNAc(b1-3)Gal(b1-3)]GalNAc
# Summary of the method: as §1
# [12] = target: GlcNAc(b1-3)Gal(b1-4)GlcNAc(b1-6)[GlcNAc(b1-3)]Gal(b1-4)GlcNAc
# Summary of the method: as §1
# GlcNAc(b1-3)GalNAc = target: GlcNAc(b1-3)GalNAc
# Summary of the method: as §1
# GlcNAc(b1-3)Man = target: GlcNAc(b1-3)Man
# Summary of the method: as §1
# [13] = target: GlcNAc(b1-3)[GlcNAc(b1-4)][GlcNAc(b1-6)]GlcNAc
# Summary of the method: as §1
# [14] = target: GlcNAc(b1-3)[GlcNAc(b1-6)]Gal(b1-4)GlcNAc
# Summary of the method: as §1
# [15] = target: GlcNAc(b1-3)[GlcNAc(b1-6)]GalNAc
# Summary of the method: as §1
# [16] = target: GlcNAc(b1-4)Gal(b1-4)GlcNAc
# Summary of the method: as §1
# GlcNAc(b1-4)GlcNAc = target: GlcNAc(b1-4)GlcNAc
# Summary of the method: as §1
# [17] = target: GlcNAc(b1-4)GlcNAc(b1-4)GlcNAc
# Summary of the method: as §1
# [18] = target: GlcNAc(b1-4)GlcNAc(b1-4)GlcNAc(b1-4)GlcNAc(b1-4)GlcNAc
# Summary of the method: as §1
# [19] = target: GlcNAc(b1-4)GlcNAc(b1-4)GlcNAc(b1-4)GlcNAc(b1-4)GlcNAc(b1-4)GlcNAc
# Summary of the method: as §1
# [20] = target: GlcNAc(b1-4)[GlcNAc(b1-6)]GalNAc
# Summary of the method: as §1
# [21] = target: GlcNAc(b1-6)Gal(b1-4)GlcNAc
# Summary of the method: as §1
# GlcNAc(b1-6)GalNAc = target: GlcNAc(b1-6)GalNAc
# Summary of the method: as §1
# GlcNAc3Prop(b1-4)GlcNAc = target: GlcNAc3Prop(b1-4)GlcNAc
# Summary of the method: as §1
# [22] = target: GlcNAc6S(b1-3)Gal(b1-4)GlcNAc
# Summary of the method: as §1
# Kdn(a2-3)Gal(b1-3)GalNAc = target: Kdn(a2-3)Gal(b1-3)GalNAc
# Summary of the method: as §1
# Kdn(a2-3)Gal(b1-3)GlcNAc = target: Kdn(a2-3)Gal(b1-3)GlcNAc
# Summary of the method: as §1
# Kdn(a2-3)Gal(b1-4)Glc = target: Kdn(a2-3)Gal(b1-4)Glc
# Summary of the method: as §1
# Kdn(a2-3)Gal(b1-4)GlcNAc = target: Kdn(a2-3)Gal(b1-4)GlcNAc
# Summary of the method: as §1
# [23] = target: Kdn(a2-3)Gal(b1-4)[Fuc(a1-3)]GlcNAc
# Summary of the method: as §1
# Kdn(a2-6)Gal(b1-4)GlcNAc = target: Kdn(a2-6)Gal(b1-4)GlcNAc
# Summary of the method: as §1
# [24] = target: Man(a1-2)Man(a1-2)Man(a1-3)Man
# Summary of the method: as §1
# [25] = target: Man(a1-2)Man(a1-2)Man(a1-6)[Man(a1-3)]Man
# Summary of the method: as §1
# Man(a1-2)Man(a1-3)Man = target: Man(a1-2)Man(a1-3)Man
# Summary of the method: as §1
# [26] = target: Man(a1-2)Man(a1-3)[Man(a1-2)Man(a1-6)]Man
# Summary of the method: as §1
binder,measurement,setting,value
"LlpA1 (Pseudomonas fluorescens), Q4KHC3 (protein) MGSSHHHHHHSSGLVPRGSHMAWIRYDFTDNGSSVLPARYYMAPNQYLQSPNKRFKLLFQADGNLALYDGAQLAWVADQNTPFTNVSKGNKKDPMMVFMNYGFVLDDPLRGRIWSTTPSDPTMGSREDASLRAFTQVQDDGNIVTVDTIPHWYAPNGRVFTPAVGAAMIIGGTTELVPGQFYSAGEHSLVFQGDGNLVVYGPNSSVIWATYTQNKGGVRCVMQEDGNLVIYAANNGVVWQSGTGGHPGATIRLQANGSFTIVTERPVWARFGYTPTIKPPRVFYPDHKWKTGSYTWNNVF",glycan array binding signal (z-score),[1],0.013
same,glycan array binding signal (z-score),[2],1.27
same,glycan array binding signal (z-score),[3],-0.254
same,glycan array binding signal (z-score),[4],0.226
same,glycan array binding signal (z-score),[5],0.726
same,glycan array binding signal (z-score),[6],0.306
same,glycan array binding signal (z-score),[7],-0.217
same,glycan array binding signal (z-score),[8],-0.404
same,glycan array binding signal (z-score),[9],-0.26
same,glycan array binding signal (z-score),[10],1.44
same,glycan array binding signal (z-score),[11],1.87
same,glycan array binding signal (z-score),[12],-0.55
same,glycan array binding signal (z-score),GlcNAc(b1-3)GalNAc,0.039
same,glycan array binding signal (z-score),GlcNAc(b1-3)Man,1.3
same,glycan array binding signal (z-score),[13],0.416
same,glycan array binding signal (z-score),[14],0.307
same,glycan array binding signal (z-score),[15],-0.057
same,glycan array binding signal (z-score),[16],-0.371
same,glycan array binding signal (z-score),GlcNAc(b1-4)GlcNAc,0.141
same,glycan array binding signal (z-score),[17],-0.285
same,glycan array binding signal (z-score),[18],0.347
same,glycan array binding signal (z-score),[19],0
same,glycan array binding signal (z-score),[20],0.367
same,glycan array binding signal (z-score),[21],-0.025
same,glycan array binding signal (z-score),GlcNAc(b1-6)GalNAc,-0.33
same,glycan array binding signal (z-score),GlcNAc3Prop(b1-4)GlcNAc,0.426
same,glycan array binding signal (z-score),[22],-0.108
same,glycan array binding signal (z-score),Kdn(a2-3)Gal(b1-3)GalNAc,-0.108
same,glycan array binding signal (z-score),Kdn(a2-3)Gal(b1-3)GlcNAc,-0.948
same,glycan array binding signal (z-score),Kdn(a2-3)Gal(b1-4)Glc,-0.444
same,glycan array binding signal (z-score),Kdn(a2-3)Gal(b1-4)GlcNAc,-0.55
same,glycan array binding signal (z-score),[23],-0.679
same,glycan array binding signal (z-score),Kdn(a2-6)Gal(b1-4)GlcNAc,0.056
same,glycan array binding signal (z-score),[24],0.075
same,glycan array binding signal (z-score),[25],-0.268
same,glycan array binding signal (z-score),Man(a1-2)Man(a1-3)Man,-0.262
same,glycan array binding signal (z-score),[26],-0.261

# Not a retest: entries from further up.
binder,measurement,setting,value
"LlpA1 (Pseudomonas fluorescens), Q4KHC3 (protein) MGSSHHHHHHSSGLVPRGSHMAWIRYDFTDNGSSVLPARYYMAPNQYLQSPNKRFKLLFQADGNLALYDGAQLAWVADQNTPFTNVSKGNKKDPMMVFMNYGFVLDDPLRGRIWSTTPSDPTMGSREDASLRAFTQVQDDGNIVTVDTIPHWYAPNGRVFTPAVGAAMIIGGTTELVPGQFYSAGEHSLVFQGDGNLVVYGPNSSVIWATYTQNKGGVRCVMQEDGNLVIYAANNGVVWQSGTGGHPGATIRLQANGSFTIVTERPVWARFGYTPTIKPPRVFYPDHKWKTGSYTWNNVF",glycan array binding signal (z-score),Kdn(a2-3)Gal(b1-3)GalNAc,-0.108
same,glycan array binding signal (z-score),Kdn(a2-3)Gal(b1-3)GlcNAc,-0.948
